These results are taken from paper PMC8016909.

Sequences of proteins named here, by UniProt entry; tags and fusion partners are left off.
UniProt O60674: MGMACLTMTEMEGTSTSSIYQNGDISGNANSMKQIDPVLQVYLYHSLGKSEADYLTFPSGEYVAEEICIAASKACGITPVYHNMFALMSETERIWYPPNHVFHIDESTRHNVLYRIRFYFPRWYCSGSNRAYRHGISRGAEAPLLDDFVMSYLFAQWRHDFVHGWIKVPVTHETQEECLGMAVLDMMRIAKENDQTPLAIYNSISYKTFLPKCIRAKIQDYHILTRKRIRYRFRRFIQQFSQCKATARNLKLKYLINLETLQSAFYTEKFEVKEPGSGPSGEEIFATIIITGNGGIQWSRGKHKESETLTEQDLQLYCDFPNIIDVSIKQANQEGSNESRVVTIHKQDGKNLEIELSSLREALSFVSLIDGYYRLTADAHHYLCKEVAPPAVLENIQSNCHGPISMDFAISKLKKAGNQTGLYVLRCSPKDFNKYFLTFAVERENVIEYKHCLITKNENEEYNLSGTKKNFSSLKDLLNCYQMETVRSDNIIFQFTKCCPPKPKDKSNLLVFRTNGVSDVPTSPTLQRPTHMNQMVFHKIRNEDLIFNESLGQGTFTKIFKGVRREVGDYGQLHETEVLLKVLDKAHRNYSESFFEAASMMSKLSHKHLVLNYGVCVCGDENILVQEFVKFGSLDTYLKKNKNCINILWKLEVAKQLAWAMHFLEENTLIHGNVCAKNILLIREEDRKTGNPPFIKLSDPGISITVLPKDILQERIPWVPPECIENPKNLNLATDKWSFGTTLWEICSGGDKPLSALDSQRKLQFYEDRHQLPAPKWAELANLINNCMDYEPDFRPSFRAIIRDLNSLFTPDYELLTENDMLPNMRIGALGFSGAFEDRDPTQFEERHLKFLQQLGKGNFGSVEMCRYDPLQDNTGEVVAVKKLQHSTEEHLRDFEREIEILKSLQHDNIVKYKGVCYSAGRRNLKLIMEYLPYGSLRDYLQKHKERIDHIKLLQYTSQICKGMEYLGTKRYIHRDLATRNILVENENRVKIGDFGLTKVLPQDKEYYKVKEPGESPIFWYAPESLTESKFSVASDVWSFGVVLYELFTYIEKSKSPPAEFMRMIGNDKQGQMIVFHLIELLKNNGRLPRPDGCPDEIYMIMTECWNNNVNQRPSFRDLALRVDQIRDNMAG
UniProt P42229: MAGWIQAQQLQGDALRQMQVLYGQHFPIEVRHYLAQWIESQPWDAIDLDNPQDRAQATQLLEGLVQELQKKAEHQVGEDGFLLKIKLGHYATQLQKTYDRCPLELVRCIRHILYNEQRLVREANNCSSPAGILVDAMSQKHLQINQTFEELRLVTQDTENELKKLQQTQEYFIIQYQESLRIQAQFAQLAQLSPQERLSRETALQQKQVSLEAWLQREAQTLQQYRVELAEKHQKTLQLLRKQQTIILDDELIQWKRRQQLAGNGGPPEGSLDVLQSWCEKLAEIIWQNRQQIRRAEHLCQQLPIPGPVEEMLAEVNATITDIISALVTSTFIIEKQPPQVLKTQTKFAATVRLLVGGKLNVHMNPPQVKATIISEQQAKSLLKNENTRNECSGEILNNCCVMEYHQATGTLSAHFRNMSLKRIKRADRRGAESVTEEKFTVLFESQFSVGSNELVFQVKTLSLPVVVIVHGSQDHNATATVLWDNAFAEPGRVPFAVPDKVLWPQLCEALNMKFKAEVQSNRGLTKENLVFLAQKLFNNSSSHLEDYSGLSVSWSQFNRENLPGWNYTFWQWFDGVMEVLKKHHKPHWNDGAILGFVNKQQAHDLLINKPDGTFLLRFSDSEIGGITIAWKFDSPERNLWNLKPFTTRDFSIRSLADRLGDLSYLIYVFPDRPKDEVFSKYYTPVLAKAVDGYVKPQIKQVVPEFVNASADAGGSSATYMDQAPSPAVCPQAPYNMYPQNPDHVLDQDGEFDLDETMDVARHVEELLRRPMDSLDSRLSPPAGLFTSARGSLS
UniProt P42224: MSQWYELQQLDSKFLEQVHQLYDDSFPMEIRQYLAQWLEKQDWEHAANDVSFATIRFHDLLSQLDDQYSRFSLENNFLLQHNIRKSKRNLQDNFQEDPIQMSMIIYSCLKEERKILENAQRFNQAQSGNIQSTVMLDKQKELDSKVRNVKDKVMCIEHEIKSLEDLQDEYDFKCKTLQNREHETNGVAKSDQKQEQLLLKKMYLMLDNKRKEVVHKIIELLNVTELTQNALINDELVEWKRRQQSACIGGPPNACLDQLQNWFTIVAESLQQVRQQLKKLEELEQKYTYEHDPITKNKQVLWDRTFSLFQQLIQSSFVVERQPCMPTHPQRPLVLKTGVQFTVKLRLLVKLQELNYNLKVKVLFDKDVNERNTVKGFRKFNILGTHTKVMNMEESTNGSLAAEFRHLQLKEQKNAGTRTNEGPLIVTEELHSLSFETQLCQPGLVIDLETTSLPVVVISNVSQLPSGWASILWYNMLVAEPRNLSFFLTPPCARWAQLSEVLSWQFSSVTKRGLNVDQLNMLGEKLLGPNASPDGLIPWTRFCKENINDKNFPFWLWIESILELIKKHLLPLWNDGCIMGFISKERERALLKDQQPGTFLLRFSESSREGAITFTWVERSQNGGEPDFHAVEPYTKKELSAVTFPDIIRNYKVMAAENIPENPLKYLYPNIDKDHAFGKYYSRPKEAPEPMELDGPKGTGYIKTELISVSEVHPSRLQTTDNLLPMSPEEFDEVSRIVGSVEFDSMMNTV

This assay concerns the target His-tagged JAK2 (His-hJAK2) expressed in HEK293T cells (human) (UniProt O60674). The assay can be described thus: affinity purification with mass spectrometry; His-tagged JAK2 immunoprecipitated from HEK293T cells, compared with cells expressing empty vector; gel slices, trypsin, Mascot search against human UniProt.

These are yes or no findings as the source states them, for the method shown. In cells and extracts the contact can be indirect. These calls come from enrichment with a bait or labelling near it, and not all partners need be listed.

For STAT5A (from UniProt P42229 1-794), the binding result was “binds”.

Turning to STAT1 (from UniProt P42224 1-750), the binding entry is “binds”.
